Laboratory results published in article PMC5732824.
Results are given in words; binding and its absence hold for the method and conditions named. Binding seen in cells or lysates may run through a third protein. Some results given as binding are weak or reduced against the parent protein; the word gives no strength.

Chains of the proteins cited; added tags and fusions are not shown.
UniProt Q92466: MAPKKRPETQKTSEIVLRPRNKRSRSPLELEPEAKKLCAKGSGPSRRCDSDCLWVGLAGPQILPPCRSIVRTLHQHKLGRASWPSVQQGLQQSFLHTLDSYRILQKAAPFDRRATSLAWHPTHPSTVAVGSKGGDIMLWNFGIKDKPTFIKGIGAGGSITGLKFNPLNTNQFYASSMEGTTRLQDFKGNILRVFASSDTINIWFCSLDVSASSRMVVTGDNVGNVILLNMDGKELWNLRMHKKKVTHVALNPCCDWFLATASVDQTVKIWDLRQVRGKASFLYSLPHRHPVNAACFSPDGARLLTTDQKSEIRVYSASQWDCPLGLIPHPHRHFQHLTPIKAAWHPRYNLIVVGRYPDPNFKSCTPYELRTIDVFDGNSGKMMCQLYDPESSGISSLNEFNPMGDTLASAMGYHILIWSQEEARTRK
UniProt Q13111: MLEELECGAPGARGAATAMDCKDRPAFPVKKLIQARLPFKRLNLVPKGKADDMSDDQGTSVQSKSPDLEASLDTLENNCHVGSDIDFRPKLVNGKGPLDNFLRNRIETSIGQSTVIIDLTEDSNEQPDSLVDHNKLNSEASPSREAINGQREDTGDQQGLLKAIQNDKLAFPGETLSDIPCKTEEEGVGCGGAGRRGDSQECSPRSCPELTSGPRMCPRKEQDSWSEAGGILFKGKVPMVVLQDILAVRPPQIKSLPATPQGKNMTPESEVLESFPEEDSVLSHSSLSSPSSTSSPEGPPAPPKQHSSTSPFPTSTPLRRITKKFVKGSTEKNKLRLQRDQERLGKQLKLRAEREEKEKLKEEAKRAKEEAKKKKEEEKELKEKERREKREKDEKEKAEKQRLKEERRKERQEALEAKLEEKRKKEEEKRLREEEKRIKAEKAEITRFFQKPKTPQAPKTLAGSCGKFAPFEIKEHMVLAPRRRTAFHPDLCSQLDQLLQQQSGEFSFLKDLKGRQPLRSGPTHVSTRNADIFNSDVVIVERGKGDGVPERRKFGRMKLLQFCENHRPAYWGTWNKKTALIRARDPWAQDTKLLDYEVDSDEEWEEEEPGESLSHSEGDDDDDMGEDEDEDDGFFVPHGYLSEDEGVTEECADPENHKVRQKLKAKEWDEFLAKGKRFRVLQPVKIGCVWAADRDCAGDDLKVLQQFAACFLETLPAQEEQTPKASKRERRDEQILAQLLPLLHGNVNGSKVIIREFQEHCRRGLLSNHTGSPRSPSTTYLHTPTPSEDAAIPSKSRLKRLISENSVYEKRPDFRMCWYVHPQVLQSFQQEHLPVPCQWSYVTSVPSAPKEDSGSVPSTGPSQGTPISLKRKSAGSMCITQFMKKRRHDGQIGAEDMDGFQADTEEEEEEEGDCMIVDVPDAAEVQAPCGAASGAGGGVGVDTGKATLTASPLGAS
UniProt P12004: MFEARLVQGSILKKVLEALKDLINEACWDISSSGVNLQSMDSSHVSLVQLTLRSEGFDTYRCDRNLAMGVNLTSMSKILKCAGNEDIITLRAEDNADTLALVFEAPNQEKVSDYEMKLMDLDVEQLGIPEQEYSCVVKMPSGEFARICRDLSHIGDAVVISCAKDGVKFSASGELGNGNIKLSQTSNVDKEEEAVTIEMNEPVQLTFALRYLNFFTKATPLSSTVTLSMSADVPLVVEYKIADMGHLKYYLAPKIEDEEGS

Target: damaged DNA binding protein 2 (DDB2), HA- and FLAG-tagged (human) (UniProt Q92466)
Experiment: co-IP; anti-FLAG M2 beads; nuclease (Benzonase)-releasable soluble chromatin fraction (~500-1000 ug protein) of HeLa-DDB2 cells, parental HeLa as control; RIPA buffer, 4°C overnight; eluted with FLAG peptide; Western blot; with and without DNA damage

Substance	binding
chromatin assembly factor-1 (CAF-1) p150 (from UniProt Q13111 1-956)	no binding
proliferation cell nuclear antigen (PCNA) (from UniProt P12004 1-261)	binds
